The supplement of paper PMC10735217
Several values for one entry are separate records, joined by “and”; a condition that tells them apart may be missing. Equal values may be shown once. Where a name gives a salt, the structure may show the parent alone. Some of the results follow. Repeats in this data set agree poorly, so a single value says little.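 The human kidney-derived cells carry a stably integrated construct of eight TEAD-binding elements driving luciferase, read by luminescence in a drug-repurposing library screen. A compound counts as a hit when its signal is more than five robust Z scores above the plate mean.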

Test system: HEK293A TEAD-LUC reporter
Test: TEAD-luciferase reporter activity (YAP activation), robust Z score vs plate; higher = stronger YAP/TEAD activation
Conditions: 24 h

Structure (SMILES) | TEAD-luciferase reporter activity (compound concentration: 200 nM) | TEAD-luciferase reporter activity (compound concentration: 2 uM) | TEAD-luciferase reporter activity (compound concentration: 10 uM)
Cc1ccc2c(nc(C)n2CCCCC2(C(=O)NCC(F)(F)F)c3ccccc3-c3ccccc32)c1NC(=O)c1ccccc1-c1ccc(C(F)(F)F)cc1 | inactive: -1.36 | inactive: -1.55 | inactive: 1.42
COc1cc(C[C@@H](CO)[C@H](CO)Cc2ccc(O)c(OC)c2)ccc1O | inactive: -0.226 | – | inactive: -1.53
COc1cc(C[C@@H](CO)[C@H](CO)Cc2ccc(O)c(OC)c2)ccc1O [(-)-Secoisolariciresinol] | – | inactive: 0.0193 | –
CCC(=O)N1CCN(c2cc3c(cc2F)c(=O)c(C(=O)O)cn3CC)CC1 | inactive: -1.21 | inactive: -1.1 | inactive: 4.73
O=C(C1CCN(c2nc3ncccc3o2)CC1)N1CCN(c2ncccn2)CC1 | inactive: 0.1 | – | inactive: -0.693
COC(=O)[C@@H]1CC(=O)C[C@H]1C(=O)OC | inactive: 0.0953 | inactive: 0.497 | inactive: 0.941
CCCCC(=O)N(Cc1ccc(-c2ccccc2-c2nnn[nH]2)cc1)[C@H](C(=O)O)C(C)C.CCOC(=O)[C@H](C)C[C@@H](Cc1ccc(-c2ccccc2)cc1)NC(=O)CCC(=O)O | inactive: -1.18 | inactive: -1.92 | inactive: -0.295
CN(Cc1ccccc1F)C1CCc2ccccc21 (centres undefined) | inactive: 3.32 | – | inactive: 0.671
OCC(CO)NC1CC(O)(CO)C(O)C(O)C1O (centres undefined) [voglibose] | inactive: -0.275 | inactive: 0.405 | inactive: 2.58
CCC(C)OC(=O)Cc1oc2ccccc2c1C(=O)c1cc(I)c(OCCN(CC)CC)c(I)c1 (centres undefined) | inactive: 0.346 | inactive: 1.37 | inactive: 0.257
COn1cc(C(=O)O)c(=O)c2cc3c(cc21)OCO3 [Miloxacin] | inactive: -0.947 | inactive: 2.22 | inactive: 0.166
COc1ccc2c(O[C@H]3CC4C(=O)N(C)CCCC/C=C\[C@@H]5C[C@@]5(C(=O)NS(=O)(=O)C5CC5)NC(=O)[C@@H]4C3)cc(-c3nc(C(C)C)cs3)nc2c1C (some centres undefined) [Simeprevir] | inactive: -0.00135 | inactive: 1.52 | inactive: -0.5
CCc1ccc2c(c1)N(CC(C)CN(C)C)c1ccccc1S2 (centres undefined) [Ethylisobutrazine Hydrochloride] | inactive: -0.833 | inactive: 1.94 | inactive: -0.0694
COc1cc2nc(N3CCN(C(=O)C4CC5C=CC4CC5)CC3)nc(N)c2cc1OC (centres undefined) | inactive: 1.95 | inactive: 1 | inactive: -1.46
N[C@@H](Cc1ccccn1)c1ccccc1 [Lanicemine hydrochloride] | inactive: -0.941 | inactive: -1.27 | inactive: -0.124
CCCc1c(OCCCOc2cc(NC(=O)c3nnn[nH]3)c(C)cc2Cl)ccc(C(C)=O)c1O | inactive: -0.971 | inactive: -1.12 | inactive: -0.263
COc1cccc(Nc2ncnn3ccc(CN4CC[C@@H](N)[C@H](O)C4)c23)c1 | inactive: -1.51 | inactive: -1.98 | inactive: -2.32
CCCCc1ccc(C(N)=O)nc1 [Bupicomide] | inactive: 0.693 | inactive: 0.175 | inactive: 1.1
C1COC(NC2CC3CCC2C3)=N1 (centres undefined) | inactive: 0.156 | inactive: 0.551 | inactive: -1.11
CC(=O)c1cccc(NC(=O)Cn2c(-c3nonc3N)nc3ccccc32)c1 | inactive: -0.631 | inactive: -0.0489 | inactive: -1.61
N#Cc1cc(-c2ccc(O)c(F)c2)cc2ccc(O)cc12 | inactive: -0.277 | inactive: -1.24 | inactive: -0.299
CCCCCCCC(=O)N[C@H](CN1CCCC1)[C@H](O)c1ccc2c(c1)OCCO2 [Eliglustat (hemitartrate)] | inactive: -0.315 | inactive: -0.232 | inactive: 1.04
c1ccc(Oc2cccnc2)cc1 | inactive: -1.37 | inactive: -0.782 | inactive: -0.364
CC(C)OC(=O)[C@@H]1CC2=CC(=O)CC[C@]2(C)[C@H]2CC[C@@]3(C)[C@@H](CC[C@@]34CCC(=O)O4)[C@H]12 [dicire] | inactive: -0.338 | inactive: -0.742 | inactive: -0.977
NC(=O)[C@@H]1CC[C@H](c2ccc(OCc3ccccc3F)cc2)N1 | inactive: -0.528 | inactive: -2.3 | inactive: -1.24
Cc1nc2ccccc2c(-c2ccc3c4c(ccnc24)CCO3)c1[C@H](OC(C)(C)C)C(=O)O | inactive: -0.405 | inactive: 1.6 and inactive: -0.66 | inactive: 1.59
C[C@H](CCC(=O)O)[C@H]1CC[C@H]2[C@@H]3C[C@H](O)[C@@H]4C[C@H](O)CC[C@]4(C)[C@H]3CC[C@]12C | inactive: -0.237 | inactive: 0.0567 | inactive: 0.00673
COc1ccc(C2CC(=O)N(C(=O)NCc3cccnc3)N2C)cc1OC1CCCC1 (centres undefined) | inactive: -1.89 | inactive: -0.172 | inactive: 0.193

Retrieved one by one from above (2):
Structure (SMILES) | TEAD-luciferase reporter activity (compound concentration: 200 nM) | TEAD-luciferase reporter activity (compound concentration: 2 uM) | TEAD-luciferase reporter activity (compound concentration: 10 uM)
OCC(CO)NC1CC(O)(CO)C(O)C(O)C1O (centres undefined) [voglibose] | inactive: -0.275 | inactive: 0.405 | inactive: 2.58
C1COC(NC2CC3CCC2C3)=N1 (centres undefined) | inactive: 0.156 | inactive: 0.551 | inactive: -1.11

Additional entries follow:

Structure (SMILES) | TEAD-luciferase reporter activity (compound concentration: 200 nM) | TEAD-luciferase reporter activity (compound concentration: 2 uM) | TEAD-luciferase reporter activity (compound concentration: 10 uM)
C[C@@H]1CN(c2c(F)c(N)c3c(=O)c(C(=O)O)cn(C4CC4)c3c2F)C[C@H](C)N1 [sparfloxacin] | inactive: -1.3 | inactive: -0.583 | inactive: 0.774
CCCCCCCCOc1ccccc1C(=O)Nc1ccc(C(=O)OCC[N+](C)(CC)CC)cc1 [otilonium bromide] | inactive: -1.41 | inactive: -2.49 | inactive: -2.92
CO[C@H]1O[C@H](CNC(=O)N(CCCl)N=O)[C@@H](O)[C@H](O)[C@H]1O [Ranimustine] | inactive: -0.828 | inactive: -0.535 | inactive: -0.454
Cc1ccc(C(=O)N(CCCN)C(c2nc3snc(C)c3c(=O)n2Cc2ccccc2)C(C)C)cc1 (centres undefined) | inactive: -0.0928 | inactive: -0.614 | inactive: 1.1
CC(Nc1ccc(C#N)cc1Cl)C(C)(C)O (centres undefined) | inactive: -0.236 | inactive: -1.9 | inactive: 0.255
COCCN1CCC(N(Cc2ccc(-c3ccc(C(F)(F)F)cc3)cc2)C(=O)c2ccco2)CC1 | inactive: -0.575 | inactive: 0.299 | inactive: -0.066
O=C1NC2(CCN(C(=O)c3ccccc3)CC2)Oc2ccccc21 | inactive: -2.35 | – | inactive: 0.911
CCCC(O)(CC(=O)O)CC(=O)O | inactive: -1.46 | inactive: -1.81 | inactive: -1.46
CC[C@H](C)[C@@H]([C@@H](CC(=O)N1CCC[C@H]1[C@H](OC)[C@@H](C)C(=O)N[C@@H](Cc1ccccc1)c1nccs1)OC)N(C)C(=O)[C@@H](NC(=O)[C@H](C(C)C)N(C)C)C(C)C [Dolastatin 10] | inactive: 4.38 | inactive: 3.07 | inactive: 4.8
COc1ccc(OC2CN(Cc3cccc4ccccc34)C2)cc1 | inactive: 0.59 | – | inactive: -1.07
O=C(/C=C/c1ccc(O)c(O)c1)c1ccc(O)cc1O | inactive: -1.26 | inactive: -0.945 | inactive: 1.23
OC(C1=NCCN1)(c1ccc(Cl)cc1)c1ccccn1 (centres undefined) | inactive: -1.31 | inactive: -0.127 | inactive: 1.61
C=CC(C)(O)CCC=C(C)C (single isomer, unassigned; (-)) [(-)-Linalool] | inactive: -2.7 | inactive: -1.81 | inactive: -1.35
O=C1c2ccccc2CN1C1CCN(Cc2ccccc2)CC1 | inactive: -1.08 | – | inactive: 0.197
CC(C)Oc1cc(-n2cnc3ccc(N[C@@H](C)c4ncc(F)cn4)nc32)n[nH]1 | inactive: 1.21 | inactive: -1.12 | inactive: 0.619
[I-] [Potassium iodide] | inactive: -0.27 | – | inactive: 0.33
C[C@@H]1NC(=O)CO[C@H]1c1ccccc1 | inactive: -1.32 | inactive: 0.725 | inactive: -0.787
NS(=O)(=O)c1ccc(NC(=O)CSc2nnc(Br)n2-c2ccc(C3CC3)c3ccccc23)c(Cl)c1 | inactive: -0.381 | inactive: -1.66 | inactive: -1.47
COc1ccc2ccc(C(C)CO)cc2c1 (centres undefined) | inactive: -2.24 | inactive: -1.56 | inactive: -1.22
Cc1cc(CC(=O)O)c(C)n1-c1ccc(Cl)cc1 [clopirac] | inactive: 1.39 | inactive: 0.757 | inactive: -0.18
CCOC(=O)[C@H](CCc1ccccc1)N[C@@H](C)C(=O)N1[C@H](C(=O)O)C[C@@H]2CCC[C@@H]21 | inactive: -0.522 | inactive: -0.809 | inactive: 0.47
CCOC(=O)[C@H](CCc1ccccc1)N[C@@H](C)C(=O)N1[C@H](C(=O)O)C[C@@H]2CCC[C@@H]21 [ramipril] | – | inactive: -1.3 | –
COc1ccc(-c2nc(C(F)(F)F)[nH]c2-c2ccc(OC)cc2)cc1 [flumazole] | inactive: -1.82 | inactive: -0.0694 | inactive: 2.74
CCN(CC)CCOc1ccc2nc(N(C)C)sc2c1 | inactive: -0.395 | inactive: -0.0568 | inactive: 0.464
O=Cc1c(O)cccc1OCc1ccc(C(=O)O)cc1 | inactive: -1.09 | inactive: 0.158 | inactive: 0.0665
CCOC(=O)C(C)(N)Cc1cc(I)c(Oc2cc(I)c(O)c(I)c2)c(I)c1 (centres undefined) [etiroxate] | inactive: -1.25 | inactive: -1.43 | active: 7.08
CC(C)(C)[C@H](NC(=O)[C@@H](NC(=O)c1cnccn1)C1CCCCC1)C(=O)O | inactive: -1.02 | inactive: 0.0202 | inactive: 0.914
